Results: article PMC10272126
Results are given in words; binding and its absence hold for the method and conditions named. In cells and extracts the contact can be indirect. A yes stands for co-enrichment or nearness to the bait. Other partners may have been found. For part of these data: Tags and fused reporters may be left off the sequences shown.

Amino acid sequences for entries named in this document (tags omitted).
UniProt Q8WXI2: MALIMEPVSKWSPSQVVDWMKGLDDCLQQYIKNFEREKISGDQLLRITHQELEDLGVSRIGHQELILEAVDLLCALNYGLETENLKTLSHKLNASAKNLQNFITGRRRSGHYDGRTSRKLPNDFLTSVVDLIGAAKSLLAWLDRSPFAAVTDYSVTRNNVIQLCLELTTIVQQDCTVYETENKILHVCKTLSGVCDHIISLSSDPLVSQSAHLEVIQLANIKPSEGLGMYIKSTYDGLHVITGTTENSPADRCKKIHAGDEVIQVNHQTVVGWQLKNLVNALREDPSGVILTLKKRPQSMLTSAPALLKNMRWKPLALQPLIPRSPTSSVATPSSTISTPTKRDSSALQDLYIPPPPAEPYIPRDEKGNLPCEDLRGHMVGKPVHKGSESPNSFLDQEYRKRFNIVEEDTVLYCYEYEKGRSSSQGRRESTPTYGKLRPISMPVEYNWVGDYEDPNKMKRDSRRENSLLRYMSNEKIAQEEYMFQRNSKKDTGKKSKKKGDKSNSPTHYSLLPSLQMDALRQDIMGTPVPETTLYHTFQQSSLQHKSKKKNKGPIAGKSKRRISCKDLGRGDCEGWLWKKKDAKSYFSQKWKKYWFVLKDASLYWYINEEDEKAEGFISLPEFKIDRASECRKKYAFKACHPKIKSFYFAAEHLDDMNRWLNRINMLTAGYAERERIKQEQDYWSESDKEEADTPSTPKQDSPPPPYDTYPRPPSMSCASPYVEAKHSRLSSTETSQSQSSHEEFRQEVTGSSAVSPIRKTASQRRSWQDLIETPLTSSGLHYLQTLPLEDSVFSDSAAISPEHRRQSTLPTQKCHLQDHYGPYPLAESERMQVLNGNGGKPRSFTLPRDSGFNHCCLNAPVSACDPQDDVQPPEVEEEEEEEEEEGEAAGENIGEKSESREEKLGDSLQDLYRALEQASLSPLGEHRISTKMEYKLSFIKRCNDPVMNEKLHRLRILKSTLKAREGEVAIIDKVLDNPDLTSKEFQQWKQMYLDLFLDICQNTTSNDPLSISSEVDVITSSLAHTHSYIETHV
UniProt O43739: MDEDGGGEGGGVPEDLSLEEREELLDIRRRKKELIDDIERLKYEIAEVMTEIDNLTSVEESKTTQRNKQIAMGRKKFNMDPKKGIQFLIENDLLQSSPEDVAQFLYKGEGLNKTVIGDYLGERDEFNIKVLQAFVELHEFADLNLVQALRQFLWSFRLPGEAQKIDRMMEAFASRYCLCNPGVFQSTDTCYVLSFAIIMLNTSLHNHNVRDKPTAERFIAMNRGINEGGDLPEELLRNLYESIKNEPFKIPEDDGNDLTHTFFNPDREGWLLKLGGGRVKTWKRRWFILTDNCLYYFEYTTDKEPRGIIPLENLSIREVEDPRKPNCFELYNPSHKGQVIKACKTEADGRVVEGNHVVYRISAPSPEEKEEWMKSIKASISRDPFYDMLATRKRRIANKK
UniProt O95819: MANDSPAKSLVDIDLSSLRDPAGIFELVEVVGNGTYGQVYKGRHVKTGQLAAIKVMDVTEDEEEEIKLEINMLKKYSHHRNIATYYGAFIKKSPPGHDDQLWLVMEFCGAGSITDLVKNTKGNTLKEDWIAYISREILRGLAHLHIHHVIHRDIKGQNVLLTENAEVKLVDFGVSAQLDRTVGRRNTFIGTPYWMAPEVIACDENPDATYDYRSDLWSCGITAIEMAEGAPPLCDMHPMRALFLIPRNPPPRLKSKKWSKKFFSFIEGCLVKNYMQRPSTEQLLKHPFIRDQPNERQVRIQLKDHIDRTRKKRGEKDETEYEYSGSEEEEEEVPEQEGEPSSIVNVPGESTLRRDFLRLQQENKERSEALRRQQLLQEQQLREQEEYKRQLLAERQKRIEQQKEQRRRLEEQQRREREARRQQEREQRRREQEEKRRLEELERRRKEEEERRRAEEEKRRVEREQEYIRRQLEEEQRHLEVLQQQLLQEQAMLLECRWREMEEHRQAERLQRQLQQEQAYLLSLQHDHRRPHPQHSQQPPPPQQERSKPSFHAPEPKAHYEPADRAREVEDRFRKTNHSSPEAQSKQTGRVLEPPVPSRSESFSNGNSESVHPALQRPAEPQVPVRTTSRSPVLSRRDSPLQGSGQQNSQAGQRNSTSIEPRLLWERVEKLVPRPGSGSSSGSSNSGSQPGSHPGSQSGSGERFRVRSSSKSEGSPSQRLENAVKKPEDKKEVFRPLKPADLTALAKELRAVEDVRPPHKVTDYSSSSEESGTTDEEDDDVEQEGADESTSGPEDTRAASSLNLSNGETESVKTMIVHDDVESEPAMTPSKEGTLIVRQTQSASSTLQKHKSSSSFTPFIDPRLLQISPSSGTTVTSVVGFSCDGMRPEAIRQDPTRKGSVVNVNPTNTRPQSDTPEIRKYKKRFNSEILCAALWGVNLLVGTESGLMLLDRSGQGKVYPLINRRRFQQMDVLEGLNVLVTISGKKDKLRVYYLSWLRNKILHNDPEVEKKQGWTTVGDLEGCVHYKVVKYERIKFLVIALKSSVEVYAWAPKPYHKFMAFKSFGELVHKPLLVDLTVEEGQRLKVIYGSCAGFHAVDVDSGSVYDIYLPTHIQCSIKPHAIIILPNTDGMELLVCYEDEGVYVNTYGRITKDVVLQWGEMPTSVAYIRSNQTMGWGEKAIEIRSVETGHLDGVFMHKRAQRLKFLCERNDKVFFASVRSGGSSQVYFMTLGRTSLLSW
UniProt Q8N8I0: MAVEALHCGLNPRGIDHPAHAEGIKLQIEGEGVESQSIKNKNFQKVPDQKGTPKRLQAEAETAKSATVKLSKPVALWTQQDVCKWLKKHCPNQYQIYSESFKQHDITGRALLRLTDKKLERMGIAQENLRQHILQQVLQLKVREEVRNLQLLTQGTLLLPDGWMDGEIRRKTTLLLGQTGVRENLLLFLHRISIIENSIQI
UniProt Q9C0H5: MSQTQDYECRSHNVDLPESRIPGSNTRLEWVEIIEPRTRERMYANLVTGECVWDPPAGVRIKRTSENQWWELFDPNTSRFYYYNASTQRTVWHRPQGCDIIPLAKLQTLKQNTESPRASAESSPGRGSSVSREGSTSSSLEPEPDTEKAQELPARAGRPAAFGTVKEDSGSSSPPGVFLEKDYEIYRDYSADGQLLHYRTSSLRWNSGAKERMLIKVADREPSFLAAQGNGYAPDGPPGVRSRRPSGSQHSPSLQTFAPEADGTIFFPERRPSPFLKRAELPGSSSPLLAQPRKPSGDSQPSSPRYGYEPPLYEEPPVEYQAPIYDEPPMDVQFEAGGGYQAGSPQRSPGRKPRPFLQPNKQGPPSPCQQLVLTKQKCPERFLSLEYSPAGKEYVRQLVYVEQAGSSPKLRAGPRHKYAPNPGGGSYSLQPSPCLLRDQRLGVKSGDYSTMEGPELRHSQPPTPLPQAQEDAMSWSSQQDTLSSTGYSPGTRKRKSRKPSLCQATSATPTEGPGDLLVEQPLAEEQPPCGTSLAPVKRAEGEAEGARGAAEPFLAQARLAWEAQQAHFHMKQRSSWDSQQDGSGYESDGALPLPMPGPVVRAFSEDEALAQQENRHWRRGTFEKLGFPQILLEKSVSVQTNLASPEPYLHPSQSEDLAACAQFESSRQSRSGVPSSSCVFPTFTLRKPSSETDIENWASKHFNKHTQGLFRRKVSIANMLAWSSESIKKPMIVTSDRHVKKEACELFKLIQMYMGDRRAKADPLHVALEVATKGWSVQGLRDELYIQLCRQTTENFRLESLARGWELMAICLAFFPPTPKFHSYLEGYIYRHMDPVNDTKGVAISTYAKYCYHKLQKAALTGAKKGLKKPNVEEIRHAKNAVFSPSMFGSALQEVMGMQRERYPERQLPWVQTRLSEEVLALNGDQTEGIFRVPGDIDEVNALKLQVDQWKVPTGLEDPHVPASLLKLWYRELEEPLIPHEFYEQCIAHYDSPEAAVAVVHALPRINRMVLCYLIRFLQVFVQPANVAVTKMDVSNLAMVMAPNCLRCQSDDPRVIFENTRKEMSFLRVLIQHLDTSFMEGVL
UniProt Q15438: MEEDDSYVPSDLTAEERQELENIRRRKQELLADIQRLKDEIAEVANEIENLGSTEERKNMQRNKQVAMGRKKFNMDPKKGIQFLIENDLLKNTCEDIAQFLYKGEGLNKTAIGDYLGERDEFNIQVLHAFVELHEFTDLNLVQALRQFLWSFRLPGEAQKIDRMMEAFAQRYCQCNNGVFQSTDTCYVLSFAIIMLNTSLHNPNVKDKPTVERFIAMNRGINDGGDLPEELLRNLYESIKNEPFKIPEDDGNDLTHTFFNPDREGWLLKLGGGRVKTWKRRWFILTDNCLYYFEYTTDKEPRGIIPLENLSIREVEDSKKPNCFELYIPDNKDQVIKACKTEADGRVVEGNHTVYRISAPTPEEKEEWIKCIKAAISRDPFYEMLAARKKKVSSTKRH
UniProt Q99418: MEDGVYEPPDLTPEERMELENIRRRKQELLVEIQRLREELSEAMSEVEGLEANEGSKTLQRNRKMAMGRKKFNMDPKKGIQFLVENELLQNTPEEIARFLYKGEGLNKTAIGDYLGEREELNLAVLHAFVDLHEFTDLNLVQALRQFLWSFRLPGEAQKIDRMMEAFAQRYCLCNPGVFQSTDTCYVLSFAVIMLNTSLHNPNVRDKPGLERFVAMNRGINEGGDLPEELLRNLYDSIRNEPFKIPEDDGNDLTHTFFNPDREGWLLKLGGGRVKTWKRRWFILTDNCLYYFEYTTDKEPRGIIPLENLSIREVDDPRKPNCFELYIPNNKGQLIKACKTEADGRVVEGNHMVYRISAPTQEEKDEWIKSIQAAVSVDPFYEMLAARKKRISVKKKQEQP
UniProt P35240: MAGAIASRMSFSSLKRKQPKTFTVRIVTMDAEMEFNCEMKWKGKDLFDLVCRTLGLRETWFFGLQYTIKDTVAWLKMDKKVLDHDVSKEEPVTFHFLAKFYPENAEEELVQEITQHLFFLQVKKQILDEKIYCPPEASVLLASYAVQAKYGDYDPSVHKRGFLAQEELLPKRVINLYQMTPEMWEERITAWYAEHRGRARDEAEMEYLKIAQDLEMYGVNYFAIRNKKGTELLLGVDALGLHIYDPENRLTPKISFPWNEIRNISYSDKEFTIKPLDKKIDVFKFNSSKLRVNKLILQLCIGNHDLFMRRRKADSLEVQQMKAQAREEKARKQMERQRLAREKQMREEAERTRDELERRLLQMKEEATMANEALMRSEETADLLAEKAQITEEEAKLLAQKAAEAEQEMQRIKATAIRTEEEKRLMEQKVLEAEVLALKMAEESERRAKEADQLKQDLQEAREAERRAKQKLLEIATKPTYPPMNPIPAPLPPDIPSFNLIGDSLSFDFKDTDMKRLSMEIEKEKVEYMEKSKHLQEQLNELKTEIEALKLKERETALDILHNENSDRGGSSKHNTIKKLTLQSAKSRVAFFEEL

Key:
[1] = biological target: FLAG-BirA*-CNK2A (human) (UniProt Q8WXI2); assay: proximity labelling; BioID in Flp-In T-REx HEK293 cells expressing FLAG-BirA*-tagged CNK baits; 1 ug/mL tetracycline and 50 uM biotin for 24 h; streptavidin pull-down from RIPA lysate, mass spectrometry, SAINTexpress score >= 0.8
[2] = biological target: FLAG-BirA*-CNK2A (human) (UniProt Q8WXI2); assay: proximity labelling; BioID in Flp-In T-REx U2OS cells expressing FLAG-BirA*-CNK2A; 1 ug/mL tetracycline and 50 uM biotin for 24 h; streptavidin pull-down from RIPA lysate, mass spectrometry, SAINTexpress score >= 0.8
[3] = biological target: T1, FLAG-BirA*-CNK1 (human) (UniProt Q969H4); assay: proximity labelling; BioID in Flp-In T-REx HEK293 cells expressing FLAG-BirA*-tagged CNK baits; 1 ug/mL tetracycline and 50 uM biotin for 24 h; streptavidin pull-down from RIPA lysate, mass spectrometry, SAINTexpress score >= 0.8
T1 sequence: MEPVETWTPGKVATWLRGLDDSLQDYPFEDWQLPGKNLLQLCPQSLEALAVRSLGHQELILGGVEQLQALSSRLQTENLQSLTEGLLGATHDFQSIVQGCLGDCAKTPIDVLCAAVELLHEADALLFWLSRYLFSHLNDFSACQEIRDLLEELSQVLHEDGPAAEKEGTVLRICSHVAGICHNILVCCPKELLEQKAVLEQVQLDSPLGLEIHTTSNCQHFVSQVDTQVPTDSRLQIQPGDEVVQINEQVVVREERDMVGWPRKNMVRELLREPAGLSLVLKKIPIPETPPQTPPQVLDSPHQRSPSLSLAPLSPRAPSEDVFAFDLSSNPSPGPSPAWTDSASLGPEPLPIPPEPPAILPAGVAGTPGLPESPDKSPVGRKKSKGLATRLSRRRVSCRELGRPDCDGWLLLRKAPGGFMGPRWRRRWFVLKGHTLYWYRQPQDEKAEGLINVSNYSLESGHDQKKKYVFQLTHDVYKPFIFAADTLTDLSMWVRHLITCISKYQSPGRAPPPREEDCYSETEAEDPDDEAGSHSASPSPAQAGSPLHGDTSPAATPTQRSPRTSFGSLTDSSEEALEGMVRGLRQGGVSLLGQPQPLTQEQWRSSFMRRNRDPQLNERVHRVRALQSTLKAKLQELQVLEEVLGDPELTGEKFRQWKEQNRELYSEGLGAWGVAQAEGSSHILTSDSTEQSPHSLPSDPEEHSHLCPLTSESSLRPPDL

Row | binding [1] | binding [2] | binding [3] | Substance
1 | binds | binds | binds | CYTH3 (from UniProt O43739 1-400)
2 | binds | binds | – | MAP4K4 (from UniProt O95819 1-1239)
3 | binds | binds | – | MINK1 (from UniProt Q8N4C8 1-1332)
4 | – | binds | – | SAMD12 (from UniProt Q8N8I0 1-201)
5 | binds | binds | – | TNIK (from UniProt Q9UKE5 1-1360)

Second part, the substance before the results:

Row | Substance | binding [1] | binding [2] | binding [3]
6 | ARHGAP39 (Vilse) (from UniProt Q9C0H5 1-1083) | binds | – | –
7 | CYTH1 (from UniProt Q15438 1-398) | binds | binds | binds
8 | CYTH2 (from UniProt Q99418 1-400) | binds | binds | binds
9 | NF2 (from UniProt P35240 1-595) | binds | binds | –
10 | SCRIB (from UniProt Q14160 1-1655) | binds | binds | –
